Assay results taken from patent US20130288373A1 (published 2013).
Results are given in words; binding and its absence hold for the method and conditions named. Some entries that bind do so weakly or less than the wild type. Tags and fused reporters may be left off the sequences shown.

Tests used:
[1] = biological target: T1, Flt3D1-D3, recombinant human Flt3 ectodomain variant (residues 27-346) with C-terminal hexahistidine tag (human) (UniProt P36888); experiment: ITC
T1 sequence (chain, N-linked glycosylation (glycosylated protein from HEK293 cells)): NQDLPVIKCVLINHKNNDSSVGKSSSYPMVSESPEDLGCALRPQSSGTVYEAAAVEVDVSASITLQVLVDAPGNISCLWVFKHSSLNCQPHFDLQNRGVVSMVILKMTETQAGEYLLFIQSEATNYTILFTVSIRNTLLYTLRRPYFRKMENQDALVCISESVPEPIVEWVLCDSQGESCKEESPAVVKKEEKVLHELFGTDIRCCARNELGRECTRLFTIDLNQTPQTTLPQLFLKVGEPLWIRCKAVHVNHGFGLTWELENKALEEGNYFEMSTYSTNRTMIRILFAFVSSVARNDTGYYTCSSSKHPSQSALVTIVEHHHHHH

[2] = biological target: T2, Flt3D1-D4, recombinant human Flt3 ectodomain variant (residues 27-434) with C-terminal hexahistidine tag (human) (UniProt P36888); experiment: ITC
T2 sequence (chain, N-linked glycosylation (glycosylated protein from HEK293 cells)): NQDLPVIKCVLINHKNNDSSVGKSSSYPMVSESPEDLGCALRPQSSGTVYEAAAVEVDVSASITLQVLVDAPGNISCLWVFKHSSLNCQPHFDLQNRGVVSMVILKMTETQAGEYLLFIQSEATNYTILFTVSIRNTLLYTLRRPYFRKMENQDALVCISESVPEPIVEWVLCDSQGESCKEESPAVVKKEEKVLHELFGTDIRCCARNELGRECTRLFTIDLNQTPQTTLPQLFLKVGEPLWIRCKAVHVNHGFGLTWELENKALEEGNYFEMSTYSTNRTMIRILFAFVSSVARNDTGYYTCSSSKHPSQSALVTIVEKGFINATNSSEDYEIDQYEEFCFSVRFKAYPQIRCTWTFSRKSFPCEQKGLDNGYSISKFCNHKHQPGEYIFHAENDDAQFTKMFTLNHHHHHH

[3] = biological target: T2, Flt3D1-D4, recombinant human Flt3 ectodomain variant (residues 27-434) with C-terminal hexahistidine tag (human); experiment: crystal structure of the Flt3D1-D4:FL complex
[4] = biological target: T2, Flt3D1-D4, recombinant human Flt3 ectodomain variant (residues 27-434) with C-terminal hexahistidine tag (human); experiment: size-exclusion chromatography, shift to a single faster migrating peak
[5] = biological target: T2, Flt3D1-D4, recombinant human Flt3 ectodomain variant (residues 27-434) with C-terminal hexahistidine tag (human); experiment: size-exclusion chromatography (Absorbance280 against elution volume) with Coomassie-stained SDS-PAGE of the peak fraction
[6] = biological target: T1, Flt3D1-D3, recombinant human Flt3 ectodomain variant (residues 27-346) with C-terminal hexahistidine tag (human); experiment: analytical and preparative size-exclusion chromatography
[7] = biological target: T2, Flt3D1-D4, recombinant human Flt3 ectodomain variant (residues 27-434) with C-terminal hexahistidine tag (human); experiment: as above
[8] = biological target: T1, Flt3D1-D3, recombinant human Flt3 ectodomain variant (residues 27-346) with C-terminal hexahistidine tag (human); experiment: size-exclusion chromatography of the mixture at the end of an ITC experiment (Absorbance280 against elution volume) with Coomassie-stained SDS-PAGE

- binding [1]: binds
- binding [2]: binds
- binding [3]: binds
- binding [4]: binds
- binding [5]: binds
- binding [6]: binds
- binding [7]: binds
- binding [8]: binds
B1: recombinant human FL (fms-like tyrosine kinase receptor-3 ligand) produced in E. coli (ligand)
chain: TQDCSFQHSPISSDFAVKIRELSDYLLQDYPVTVASNLQDEELCGGLWRLVLAQRWMERLKTVAGSKMQGLLERVNTEIHFVTKCAFQPPPSCLRFVQTNISRLLQETSEQLVALKPWITRQNFSRCLELQCQP
notes: Dimeric cytokine; also called Flt3 ligand; cognate ligand
